From the supplement of paper PMC12819154, “High-throughput peptide-centric local stability assay extends protein–ligand identification to membrane proteins, tissues and bacteria” (Nature Structural & Molecular Biology, 2025) come the findings set out here.

Sequences of proteins named here, by UniProt entry; tags and fusion partners are left off. A change or cut given only in a name is not applied to a line headed by its entry.
UniProt Q05A36: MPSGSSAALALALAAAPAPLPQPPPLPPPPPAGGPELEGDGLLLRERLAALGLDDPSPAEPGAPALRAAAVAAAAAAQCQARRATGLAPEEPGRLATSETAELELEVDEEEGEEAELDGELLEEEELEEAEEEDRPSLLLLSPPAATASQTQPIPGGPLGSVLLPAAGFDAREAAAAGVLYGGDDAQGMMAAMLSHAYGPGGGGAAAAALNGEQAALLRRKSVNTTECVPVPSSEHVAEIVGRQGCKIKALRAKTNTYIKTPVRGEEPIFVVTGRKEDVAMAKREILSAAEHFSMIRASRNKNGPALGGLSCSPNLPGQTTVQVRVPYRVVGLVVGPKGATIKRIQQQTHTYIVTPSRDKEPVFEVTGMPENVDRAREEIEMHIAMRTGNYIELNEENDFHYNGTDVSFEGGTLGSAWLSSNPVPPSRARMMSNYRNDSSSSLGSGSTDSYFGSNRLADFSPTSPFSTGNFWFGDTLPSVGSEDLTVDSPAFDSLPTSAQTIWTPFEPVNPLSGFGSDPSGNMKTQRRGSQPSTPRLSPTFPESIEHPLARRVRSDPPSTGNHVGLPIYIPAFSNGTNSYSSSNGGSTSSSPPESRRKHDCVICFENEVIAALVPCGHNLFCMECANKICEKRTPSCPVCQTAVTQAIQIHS
UniProt Q3TB82: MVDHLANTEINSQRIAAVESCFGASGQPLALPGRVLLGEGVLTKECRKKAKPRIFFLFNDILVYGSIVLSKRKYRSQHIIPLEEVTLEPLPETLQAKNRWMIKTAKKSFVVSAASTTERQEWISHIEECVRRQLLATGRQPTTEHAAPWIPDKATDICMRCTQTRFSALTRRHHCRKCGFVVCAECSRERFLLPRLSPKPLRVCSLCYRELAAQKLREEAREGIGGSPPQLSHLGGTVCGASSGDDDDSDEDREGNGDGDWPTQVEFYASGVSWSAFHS
UniProt Q14CH1: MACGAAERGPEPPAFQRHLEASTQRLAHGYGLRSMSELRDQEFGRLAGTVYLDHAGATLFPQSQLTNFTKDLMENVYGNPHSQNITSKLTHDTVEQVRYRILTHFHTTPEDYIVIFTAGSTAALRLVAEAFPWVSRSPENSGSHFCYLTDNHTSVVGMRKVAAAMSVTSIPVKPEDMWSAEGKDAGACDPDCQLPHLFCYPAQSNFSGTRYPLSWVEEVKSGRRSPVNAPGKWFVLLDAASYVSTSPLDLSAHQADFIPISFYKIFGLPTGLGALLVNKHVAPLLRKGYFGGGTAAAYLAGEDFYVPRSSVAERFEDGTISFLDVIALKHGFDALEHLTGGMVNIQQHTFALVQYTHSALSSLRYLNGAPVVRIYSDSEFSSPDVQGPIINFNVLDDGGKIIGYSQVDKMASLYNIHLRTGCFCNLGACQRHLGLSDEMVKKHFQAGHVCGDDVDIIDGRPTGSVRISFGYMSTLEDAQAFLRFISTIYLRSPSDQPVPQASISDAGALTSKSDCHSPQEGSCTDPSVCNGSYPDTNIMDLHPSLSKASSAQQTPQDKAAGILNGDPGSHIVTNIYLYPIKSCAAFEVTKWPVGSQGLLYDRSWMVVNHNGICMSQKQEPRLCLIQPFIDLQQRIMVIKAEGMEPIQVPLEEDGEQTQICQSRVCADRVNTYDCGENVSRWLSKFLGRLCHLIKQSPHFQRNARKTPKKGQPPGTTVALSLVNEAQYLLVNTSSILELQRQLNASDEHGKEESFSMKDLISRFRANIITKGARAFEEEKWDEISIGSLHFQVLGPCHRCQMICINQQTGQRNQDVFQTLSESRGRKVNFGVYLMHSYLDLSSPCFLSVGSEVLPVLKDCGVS
UniProt Q3TGW2: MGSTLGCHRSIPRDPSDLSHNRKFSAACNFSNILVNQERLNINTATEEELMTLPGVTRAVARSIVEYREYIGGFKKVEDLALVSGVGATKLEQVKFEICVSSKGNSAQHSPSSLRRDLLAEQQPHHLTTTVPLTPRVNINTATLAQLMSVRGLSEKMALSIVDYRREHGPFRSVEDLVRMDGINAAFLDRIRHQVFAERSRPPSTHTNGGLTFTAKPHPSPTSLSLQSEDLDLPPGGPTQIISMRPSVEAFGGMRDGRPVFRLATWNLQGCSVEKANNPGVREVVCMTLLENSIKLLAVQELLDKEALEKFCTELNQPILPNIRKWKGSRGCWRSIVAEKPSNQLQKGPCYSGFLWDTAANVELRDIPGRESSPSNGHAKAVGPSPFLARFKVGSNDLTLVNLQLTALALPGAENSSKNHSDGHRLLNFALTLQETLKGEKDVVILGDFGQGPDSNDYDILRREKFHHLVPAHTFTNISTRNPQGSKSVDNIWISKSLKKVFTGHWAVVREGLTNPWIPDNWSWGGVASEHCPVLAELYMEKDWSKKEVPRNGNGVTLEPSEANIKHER
UniProt Q3TUH1: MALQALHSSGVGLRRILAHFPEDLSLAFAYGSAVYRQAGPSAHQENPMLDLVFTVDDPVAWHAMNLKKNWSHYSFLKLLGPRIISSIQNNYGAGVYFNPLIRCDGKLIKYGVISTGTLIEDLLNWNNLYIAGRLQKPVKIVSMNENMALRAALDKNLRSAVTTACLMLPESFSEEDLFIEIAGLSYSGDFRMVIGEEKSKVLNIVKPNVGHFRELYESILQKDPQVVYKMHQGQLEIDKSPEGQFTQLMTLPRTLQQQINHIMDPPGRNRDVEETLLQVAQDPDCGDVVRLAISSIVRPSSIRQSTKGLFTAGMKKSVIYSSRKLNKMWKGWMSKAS
UniProt Q3U2A8: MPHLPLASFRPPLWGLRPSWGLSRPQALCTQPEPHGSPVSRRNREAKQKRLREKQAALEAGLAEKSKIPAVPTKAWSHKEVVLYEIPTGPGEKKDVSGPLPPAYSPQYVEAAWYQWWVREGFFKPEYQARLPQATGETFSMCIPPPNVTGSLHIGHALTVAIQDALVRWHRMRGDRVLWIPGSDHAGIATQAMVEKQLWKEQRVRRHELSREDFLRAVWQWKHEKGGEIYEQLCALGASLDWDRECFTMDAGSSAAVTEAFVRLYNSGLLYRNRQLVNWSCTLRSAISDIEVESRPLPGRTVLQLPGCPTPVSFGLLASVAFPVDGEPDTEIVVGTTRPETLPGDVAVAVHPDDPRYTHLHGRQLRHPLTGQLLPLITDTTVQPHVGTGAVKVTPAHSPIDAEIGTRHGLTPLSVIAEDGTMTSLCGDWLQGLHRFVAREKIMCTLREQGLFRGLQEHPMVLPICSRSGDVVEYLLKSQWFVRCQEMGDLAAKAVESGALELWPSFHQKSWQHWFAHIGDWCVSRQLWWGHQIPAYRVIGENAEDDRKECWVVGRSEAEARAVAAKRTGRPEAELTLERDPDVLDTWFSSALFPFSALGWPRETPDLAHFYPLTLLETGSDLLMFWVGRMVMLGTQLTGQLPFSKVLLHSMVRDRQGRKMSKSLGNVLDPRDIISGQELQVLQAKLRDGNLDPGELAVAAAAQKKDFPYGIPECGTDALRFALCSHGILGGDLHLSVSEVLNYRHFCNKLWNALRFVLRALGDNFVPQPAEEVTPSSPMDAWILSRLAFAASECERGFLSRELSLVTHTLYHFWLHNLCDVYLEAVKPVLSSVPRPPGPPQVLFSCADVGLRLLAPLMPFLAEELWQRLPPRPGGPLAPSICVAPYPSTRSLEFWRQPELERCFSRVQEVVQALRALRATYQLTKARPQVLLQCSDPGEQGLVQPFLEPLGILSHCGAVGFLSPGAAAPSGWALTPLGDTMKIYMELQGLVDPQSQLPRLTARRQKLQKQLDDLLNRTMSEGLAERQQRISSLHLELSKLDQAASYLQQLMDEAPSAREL
UniProt Q3TXS7: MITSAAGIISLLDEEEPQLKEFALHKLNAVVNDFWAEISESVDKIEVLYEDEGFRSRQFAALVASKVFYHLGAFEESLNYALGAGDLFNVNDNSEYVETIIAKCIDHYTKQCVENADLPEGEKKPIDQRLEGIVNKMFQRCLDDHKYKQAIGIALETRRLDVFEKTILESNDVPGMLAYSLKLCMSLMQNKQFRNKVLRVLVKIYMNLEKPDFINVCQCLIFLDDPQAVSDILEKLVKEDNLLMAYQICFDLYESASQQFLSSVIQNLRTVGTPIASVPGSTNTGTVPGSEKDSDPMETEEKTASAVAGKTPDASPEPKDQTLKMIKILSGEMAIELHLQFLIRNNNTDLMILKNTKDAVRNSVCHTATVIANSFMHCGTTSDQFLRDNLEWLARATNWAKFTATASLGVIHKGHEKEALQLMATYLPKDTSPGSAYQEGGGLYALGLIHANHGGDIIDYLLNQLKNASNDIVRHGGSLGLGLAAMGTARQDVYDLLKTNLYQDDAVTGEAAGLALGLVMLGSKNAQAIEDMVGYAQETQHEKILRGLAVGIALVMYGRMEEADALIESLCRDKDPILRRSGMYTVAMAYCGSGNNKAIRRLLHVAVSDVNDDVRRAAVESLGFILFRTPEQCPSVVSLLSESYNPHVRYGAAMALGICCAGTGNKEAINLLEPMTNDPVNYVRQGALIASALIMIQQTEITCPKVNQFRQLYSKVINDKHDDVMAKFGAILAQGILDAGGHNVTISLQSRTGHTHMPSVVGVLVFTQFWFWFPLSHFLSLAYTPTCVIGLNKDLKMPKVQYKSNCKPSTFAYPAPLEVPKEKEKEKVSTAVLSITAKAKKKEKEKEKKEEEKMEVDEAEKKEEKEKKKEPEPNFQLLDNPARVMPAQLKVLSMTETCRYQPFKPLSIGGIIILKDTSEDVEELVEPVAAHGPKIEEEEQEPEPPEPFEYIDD
UniProt Q3TV70: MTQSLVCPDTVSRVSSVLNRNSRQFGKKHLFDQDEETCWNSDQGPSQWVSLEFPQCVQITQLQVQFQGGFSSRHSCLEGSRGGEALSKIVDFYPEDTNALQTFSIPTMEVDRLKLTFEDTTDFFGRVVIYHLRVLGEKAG
UniProt Q3TC46: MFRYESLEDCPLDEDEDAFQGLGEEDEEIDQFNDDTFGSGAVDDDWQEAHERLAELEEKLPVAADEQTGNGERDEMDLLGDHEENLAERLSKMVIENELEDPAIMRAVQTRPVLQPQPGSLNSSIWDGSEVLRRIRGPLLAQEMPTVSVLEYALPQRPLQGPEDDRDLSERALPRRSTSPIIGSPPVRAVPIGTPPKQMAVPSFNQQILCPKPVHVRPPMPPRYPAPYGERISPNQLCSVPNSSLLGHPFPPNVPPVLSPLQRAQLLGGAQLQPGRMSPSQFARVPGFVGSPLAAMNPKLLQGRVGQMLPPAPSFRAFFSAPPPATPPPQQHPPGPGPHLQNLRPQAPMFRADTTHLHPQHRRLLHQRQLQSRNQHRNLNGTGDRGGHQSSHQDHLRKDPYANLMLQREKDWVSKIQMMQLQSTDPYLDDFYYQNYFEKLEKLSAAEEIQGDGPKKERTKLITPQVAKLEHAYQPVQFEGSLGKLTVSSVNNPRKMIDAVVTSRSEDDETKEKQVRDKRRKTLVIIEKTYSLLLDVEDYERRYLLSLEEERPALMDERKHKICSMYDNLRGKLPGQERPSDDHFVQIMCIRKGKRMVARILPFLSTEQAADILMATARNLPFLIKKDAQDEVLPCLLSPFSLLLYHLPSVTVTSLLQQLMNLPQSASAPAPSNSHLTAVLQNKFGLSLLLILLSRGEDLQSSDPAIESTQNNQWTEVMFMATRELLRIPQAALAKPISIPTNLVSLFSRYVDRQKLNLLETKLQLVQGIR
UniProt Q2YDW2: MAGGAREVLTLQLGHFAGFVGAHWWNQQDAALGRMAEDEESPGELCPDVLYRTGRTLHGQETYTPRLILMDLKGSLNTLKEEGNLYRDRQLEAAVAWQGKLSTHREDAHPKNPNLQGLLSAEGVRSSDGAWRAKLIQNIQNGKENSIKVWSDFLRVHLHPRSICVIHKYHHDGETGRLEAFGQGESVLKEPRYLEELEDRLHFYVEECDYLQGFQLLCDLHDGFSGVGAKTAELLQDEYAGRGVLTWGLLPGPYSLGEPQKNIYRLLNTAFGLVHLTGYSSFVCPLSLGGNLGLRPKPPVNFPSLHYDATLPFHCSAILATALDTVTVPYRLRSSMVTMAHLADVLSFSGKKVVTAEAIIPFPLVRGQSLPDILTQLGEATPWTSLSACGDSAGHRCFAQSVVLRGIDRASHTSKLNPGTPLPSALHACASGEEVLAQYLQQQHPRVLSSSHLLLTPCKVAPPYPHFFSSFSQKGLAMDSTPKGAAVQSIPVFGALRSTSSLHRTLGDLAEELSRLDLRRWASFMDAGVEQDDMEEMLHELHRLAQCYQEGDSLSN
UniProt Q3KNJ2: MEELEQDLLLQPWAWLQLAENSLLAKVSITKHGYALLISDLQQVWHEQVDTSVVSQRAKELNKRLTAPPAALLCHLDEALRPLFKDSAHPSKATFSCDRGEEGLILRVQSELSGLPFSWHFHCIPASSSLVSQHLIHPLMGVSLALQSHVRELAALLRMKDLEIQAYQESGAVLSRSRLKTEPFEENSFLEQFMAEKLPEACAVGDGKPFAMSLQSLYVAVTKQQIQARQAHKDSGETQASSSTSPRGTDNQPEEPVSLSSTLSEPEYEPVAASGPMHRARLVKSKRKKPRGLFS

The list shows a part of the results. Small differences around the control level are noise.

Compound in this experiment: CN[C@@H]1C[C@H]2O[C@@](C)([C@@H]1OC)n1c3ccccc3c3c4c(c5c6ccccc6n2c5c31)C(=O)NC4 [staurosporine]
The experiment is described as follows: log2 fold change of tryptic peptide abundance, ligand vs vehicle (limited proteolysis) (log2 ratio); higher = more trypsin-susceptible (destabilized). Conditions: ligand concentration: 20 uM; sample: mouse liver crude lysate; replicate design: treated separately.
With “UniProt Q02614 (peptide sequence: IEMDKLEK, peptide start residue: 206)”, the log2 fold change was -0.304.

For “UniProt Q03249 (peptide sequence: DLTPEQAAER, peptide start residue: 348)”, the log2 fold change is -0.238.

For “UniProt Q3U133 (peptide sequence: GEVPKEWGK, peptide start residue: 104)”, the log2 fold change was -0.511.

As for “UniProt Q05A36 (peptide sequence: TPVRGEEPIFVVTGR, peptide start residue: 261)”, the log2 fold change is -0.287.

With “UniProt Q0KL02 (peptide sequence: GNLGSLPLGK, peptide start residue: 2442)”, the log2 fold change was -0.276.

Consider “UniProt Q3U1F9 (peptide sequence: ADFAEYASVDR, peptide start residue: 219)”, for which the log2 fold change is -0.138.

On to “UniProt Q04692 (peptide sequence: ASLSCFQNQR, peptide start residue: 78)”, for which the log2 fold change was -0.295.

For the target “UniProt Q3TBW2 (peptide sequence: VFPSQVLKPFLENSK, peptide start residue: 125)”, the log2 fold change came to 0.341.

Regarding “UniProt Q3U0B3 (peptide sequence: YAVTALTEGLR, peptide start residue: 171)”, the log2 fold change was found to be 0.273.

For “UniProt Q3TB82 (peptide sequence: VLLGEGVLTK, peptide start residue: 35)”, the log2 fold change was 0.135.

On to “UniProt Q07113 (peptide sequence: GAEVESSQPLRNPQR, peptide start residue: 2418)”, for which the log2 fold change is -0.169.

Turning to “UniProt Q14CH1 (peptide sequence: GPEPPAFQR, peptide start residue: 9)”, the log2 fold change came to 0.136.

As to “UniProt Q3TGW2 (peptide sequence: SIPRDPSDLSHNR, peptide start residue: 10)”, the log2 fold change was -0.249.

Consider “UniProt Q3TUH1 (peptide sequence: KSVIYSSR, peptide start residue: 316)”, for which the log2 fold change is -0.813.

Turning to “UniProt Q3U2A8 (peptide sequence: LRDGNLDPGELAVAAAAQK, peptide start residue: 686)”, the log2 fold change is -0.157.

On to “UniProt Q3TXS7 (peptide sequence: QCVENADLPEGEKKPIDQR, peptide start residue: 111)”, for which the log2 fold change is -0.508.

For “UniProt Q03173 (peptide sequence: APSTSTPEPTR, peptide start residue: 716)”, the log2 fold change worked out at 0.486.

With “UniProt Q3TV70 (peptide sequence: VLGEKAG, peptide start residue: 134)”, the log2 fold change was -0.2.

“UniProt Q3TC46 (peptide sequence: YLLSLEEERPALMDER, peptide start residue: 543)”: the log2 fold change was found to be 0.364.

On to “UniProt Q2YDW2 (peptide sequence: SSMVTMAHLADVLSFSGKK, peptide start residue: 334)”, for which the log2 fold change was found to be 0.445.

For the target “UniProt Q05909 (peptide sequence: LITQCNAK, peptide start residue: 1153)”, the log2 fold change was -0.553.

With “UniProt Q3KNJ2 (peptide sequence: QAHKDSGETQASSSTSPR, peptide start residue: 230)”, the log2 fold change is -0.634.

As for “UniProt Q3TJZ6 (peptide sequence: VPPNHVGKPLLK, peptide start residue: 182)”, the log2 fold change turned out to be 0.307.

As for “UniProt Q08376 (peptide sequence: FEYLLYGHHR, peptide start residue: 265)”, the log2 fold change is -0.444.
